Test systems include Tesmin (human); Tetraspanin-4 (human); Titin (human); Transaldolase (human).
Holding throughout (assay): protein microarray (ProtoArray v5.0), streptavidin-Alexa Fluor 647
Common to all, as to conditions: 3'-biotin; 20 mM Tris (pH 7.5), 5 mM MgCl2, 100 mM KCl, 0.1% Tween-20, A/T-rich and random oligonucleotide blockers; temperature not stated; high values mean tight binding

For assay [1], the system named is Tetratricopeptide repeat protein 1 (human).
Assay [2] relates to Thiamin pyrophosphokinase 1 (human).
For assay [3], the system named is Thimet oligopeptidase (human).
Assay [4] has as its system Thioredoxin reductase 1, cytoplasmic (human).
The subject of assay [5] is Thrombospondin type-1 domain-containing protein 4 (human).
The subject of assay [6] is Thymosin beta-4, Y-chromosomal (human).
In assay [7] the test system is Thyroid receptor-interacting protein 11 (human).
Assay [8] has as its system Trafficking protein particle complex subunit 6A (human).
In assay [9] the test system is Transcription initiation factor TFIID subunit 8 (human).
Assay [10] relates to Transducin-like enhancer protein 4 (human).
Assay [11] concerns Transmembrane 4 L6 family member 1 (human).
The subject of assay [12] is Transmembrane 4 L6 family member 18 (human).
Assay [13] has as its system Transmembrane protein 107 (human).
Assay [14] concerns Transmembrane protein 120A (human).
The test system of assay [15] is Transmembrane protein 156 (human).
Assay [16] has as its system Transmembrane protein 188 (human).

This is one part of the list.

Regarding “GGGAGGCTGAGGCAGG [G4-1 biotinylated (PQS2)]”, the binding signal is -0.36 z-score in the assay with Tesmin (human); -0.303 z-score with Tetraspanin-4 (human); -0.346 z-score in [1]; -0.307 z-score in [2]; -0.299 z-score in assay [3]; -0.316 z-score in [4]. The binding signal in assay [5] was -0.308 z-score; in assay [6], -0.353 z-score; in [7] it was -0.336 z-score; with Titin (human) it was -0.311 z-score; in assay [8], -0.328 z-score; in the assay on Transaldolase (human), -0.355 z-score. The binding signal is -0.356 z-score in assay [9]; -0.327 z-score in assay [10]; -0.335 z-score in assay [11]; -0.304 z-score in assay [12]; -0.298 z-score in assay [13]; -0.298 z-score in [14]. Further, the binding signal is -0.356 z-score in assay [15] and -0.307 z-score in [16].

The values are drawn from PMC5996148.
